This is an account of results in paper PMC10599732.

Protein sequences, listed by entry. Tags and fused reporters are not part of them.
UniProt P09936: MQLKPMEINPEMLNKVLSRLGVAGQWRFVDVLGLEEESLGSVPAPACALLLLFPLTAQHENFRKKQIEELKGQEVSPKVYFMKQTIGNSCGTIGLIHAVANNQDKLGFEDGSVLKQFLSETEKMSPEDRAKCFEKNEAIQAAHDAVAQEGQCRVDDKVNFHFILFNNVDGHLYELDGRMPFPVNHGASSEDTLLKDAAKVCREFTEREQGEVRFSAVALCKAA
UniProt P14618: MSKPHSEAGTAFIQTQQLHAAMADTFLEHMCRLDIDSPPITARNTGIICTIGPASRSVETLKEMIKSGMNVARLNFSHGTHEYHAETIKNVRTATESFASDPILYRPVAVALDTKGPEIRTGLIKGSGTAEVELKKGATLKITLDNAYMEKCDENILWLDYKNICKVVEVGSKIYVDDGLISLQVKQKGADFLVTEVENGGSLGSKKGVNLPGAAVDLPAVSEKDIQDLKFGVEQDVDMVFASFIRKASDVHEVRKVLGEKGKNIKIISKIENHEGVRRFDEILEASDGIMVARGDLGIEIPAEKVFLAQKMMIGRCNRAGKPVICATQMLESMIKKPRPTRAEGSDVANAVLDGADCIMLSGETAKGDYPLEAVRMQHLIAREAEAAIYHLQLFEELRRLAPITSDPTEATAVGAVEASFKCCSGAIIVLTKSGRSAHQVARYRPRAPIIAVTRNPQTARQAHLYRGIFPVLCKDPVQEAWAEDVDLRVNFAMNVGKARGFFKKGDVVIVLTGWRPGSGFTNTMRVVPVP

No constants are given. Whether binding was seen depends on the method and setting. In cells and extracts the contact can be indirect. Some binding calls cover weakened binding; strength is not graded here.

This experiment deals with Ubiquitin Carboxy-Terminal Hydrolase L1 (human (endogenous in T24 and J82)) (UniProt P09936). As to the kind of experiment: co-IP; endogenous proteins in T24 and J82 cell lysates; antibody on magnetic beads, GLB+ lysis buffer with protease inhibitors, 4°C overnight, 4 washes; Western blot.

As to “Pyruvate kinase M2 (from UniProt P14618 1-531) (enzyme)”, the binding result is given as “binds”.
